# The list shows only some results of the screen, not a fair sample: it is rich in T/C values a quarter to a half above the control, in often repeated tests (any T/C) and in doses without a T/C. Other doses and runs of a compound stand elsewhere. T/C: endpoint of the treated group in % of that of the vehicle group. Some entries give survivors of the animals treated and no T/C: the source holds a T/C of zero for them, seemingly a mark for toxic or unscored doses. Some survivor counts are full or nearly so, which does not show that the dose was tolerated: the source hardly ever lists a survival T/C far under the control, and the zero likely stands for such cases as well. Survivors were counted at the toxicity check, usually on the fifth day, unless a day is given; later deaths do not show. Schedules are NCI's codes, read here as Q, the interval in days (D) or hours (H), X, the number of doses. Some schedule codes hold Z or #, which are not explained here. Some doses were run more than once; the values are given in rising order. For survival time, the PubChem record calls one and a half times the control and up active, and a quarter to a half above the control has no call in these data; cut-offs in other NCI protocols can differ. Some T/C values are followed by the survivors on the day toxicity was checked, most often the fifth; without a count, all were alive then.
# System: CD2F1 mice, L1210 leukemia sc, survival T/C
# Assay: NCI In Vivo Anticancer Drug Screen. Data for tumor model L1210 Leukemia (subcutaneous) in CD2F1 (CDF1) mice
# Conditions: T/C endpoint: median survival time, higher T/C = longer survival
# Summary of the method: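 Transplantable tumor-bearing mice were treated with compound; survival or tumor size measured and expressed as treated-group value (T) divided by vehicle-treated control value (C).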
# [1] = dose: 500.0 mg/kg/injection, schedule: Q01DX Z (sc), vehicle: methylcellulose (MC)
compound,measurement,setting,value
Nc1ncn(C2OC(CO)C(O)C2O)c(=O)n1 (stereo unspecified),survivor count,"dose: 0.2 mg/kg/injection, schedule: Q01DX009 (sc), vehicle: saline",3 of 10
same,T/C,"dose: 0.8 mg/kg/injection, schedule: Q01DX009 (ip), vehicle: saline",134 % of control
same,T/C,"dose: 0.8 mg/kg/injection, schedule: Q01DX009 (sc), vehicle: saline",137 % of control
same,T/C,"dose: 2.1 mg/kg/injection, schedule: Q01DX009 (sc), vehicle: saline",138 % of control
same,T/C,"dose: 2.4 mg/kg/injection, schedule: Q01DX009 (ip), vehicle: saline",145 % of control
same,T/C,"dose: 3.2 mg/kg/injection, schedule: Q01DX009 (ip), vehicle: saline, evaluated on day 30",167 and 185 % of control
same,T/C,"dose: 3.2 mg/kg/injection, schedule: Q01DX009 (ip), vehicle: saline, evaluated on day 45",168 and 197 % of control
same,T/C,"dose: 3.2 mg/kg/injection, schedule: Q01DX009 (sc), vehicle: saline, evaluated on day 30",157 and 243 % of control
same,T/C,"dose: 3.2 mg/kg/injection, schedule: Q01DX009 (sc), vehicle: saline, evaluated on day 45",142 and 143 % of control
same,T/C,"dose: 4.8 mg/kg/injection, schedule: Q01DX009 (ip), vehicle: saline, evaluated on day 30",198 % of control
same,T/C,"dose: 4.8 mg/kg/injection, schedule: Q01DX009 (ip), vehicle: saline, evaluated on day 45","92, 216, 244 % of control"
same,T/C,"dose: 4.8 mg/kg/injection, schedule: Q01DX009 (sc), vehicle: saline, evaluated on day 30",162 % of control
same,T/C,"dose: 4.8 mg/kg/injection, schedule: Q01DX009 (sc), vehicle: saline, evaluated on day 45","144, 168, 198 % of control"
same,T/C,"dose: 7.2 mg/kg/injection, schedule: Q01DX009 (ip), vehicle: saline",142 % of control
same,survivor count,"dose: 9.6 mg/kg/injection, schedule: Q01DX009 (ip), vehicle: saline",10 of 10
same,T/C,"dose: 9.6 mg/kg/injection, schedule: Q01DX009 (sc), vehicle: saline, evaluated on day 30",154 % of control
same,T/C,"dose: 9.6 mg/kg/injection, schedule: Q01DX009 (sc), vehicle: saline, evaluated on day 45",90 and 136 % of control
same,T/C,"dose: 9.6 mg/kg/injection, schedule: Q01DX009 (sc), vehicle: saline, evaluated on day 60",142 % of control
same,T/C,"dose: 14.4 mg/kg/injection, schedule: Q01DX009 (sc), vehicle: saline, evaluated on day 30",129 % of control
same,T/C,"dose: 14.4 mg/kg/injection, schedule: Q01DX009 (sc), vehicle: saline, evaluated on day 60",140 % of control
same,T/C,"dose: 19.2 mg/kg/injection, schedule: Q01DX009 (sc), vehicle: saline",125 % of control
CSc1nc2[nH]cnc(=S)c2[nH]1,survivor count,[1],2 of 10
CCCCn1cnc2c(=S)nc[nH]c21,survivor count,"dose: 23.0 mg/kg/injection, schedule: Q01DX Z (sc), vehicle: methylcellulose (MC)",4 of 10
same,survivor count,"dose: 39.0 mg/kg/injection, schedule: Q01DX Z (sc), vehicle: methylcellulose (MC)",5 of 10
same,survivor count,"dose: 65.0 mg/kg/injection, schedule: Q01DX Z (sc), vehicle: methylcellulose (MC)",3 of 10
same,survivor count,"dose: 108.0 mg/kg/injection, schedule: Q01DX Z (sc), vehicle: methylcellulose (MC)",2 of 10
same,survivor count,"dose: 180.0 mg/kg/injection, schedule: Q01DX Z (sc), vehicle: methylcellulose (MC)",3 of 10
same,survivor count,"dose: 300.0 mg/kg/injection, schedule: Q01DX Z (sc), vehicle: methylcellulose (MC)",3 of 10
same,survivor count,[1],4 of 10
Nc1nc([Se]c2nc(N)nc3c2ncn3C2OC(CO)C(O)C2O)c2ncn(C3OC(CO)C(O)C3O)c2n1 (stereo unspecified),T/C,"dose: 36.0 mg/kg/injection, schedule: Q01DX009 (ip), vehicle: distilled water + Tween-80",131 % of control
same,T/C,"dose: 100.0 mg/kg/injection, schedule: Q01DX005 (ip), vehicle: distilled water + Tween-80",147 % of control
same,T/C,"dose: 200.0 mg/kg/injection, schedule: Q01DX005 (ip), vehicle: distilled water + Tween-80",145 % of control
same,survivor count,"dose: 278.0 mg/kg/injection, schedule: Q01DX009 (ip), vehicle: distilled water + Tween-80",2 of 10 and 4 of 6
CCN(CC)CCNc1ccc(CO)c2sc3ccccc3c(=O)c12,T/C,"dose: 40.0 mg/kg/injection, schedule: Q01DX009 (ip), vehicle: water",140 and 142 % of control
same,T/C,"dose: 80.0 mg/kg/injection, schedule: Q01DX009 (ip), vehicle: water",141 and 142 % of control
CN(Cc1cnc2nc(N)nc(N)c2n1)c1c(Cl)cc(C(=O)NC(CCC(=O)O)C(=O)O)cc1Br (stereo unspecified),T/C,"dose: 28.1 mg/kg/injection, schedule: Q01DX Z (oral), vehicle: other",127 % of control
same,T/C,"dose: 600.0 mg/kg/injection, schedule: Q01DX Z (oral), vehicle: other",138 % of control
same,T/C,"dose: 1000.0 mg/kg/injection, schedule: Q01DX Z (oral), vehicle: other",133 % of control
CN(N=O)C(=O)N[C@@H](C=O)[C@@H](O)[C@H](O)[C@H](O)CO,T/C,"dose: 50.0 mg/kg/injection, schedule: Q01DX009 (ip), vehicle: other",129 % of control
same,T/C,"dose: 50.0 mg/kg/injection, schedule: Q01DX009 (sc), vehicle: other",136 % of control
same,T/C,"dose: 66.7 mg/kg/injection, schedule: Q01DX009 (sc), vehicle: other",129 % of control
same,T/C,"dose: 100.0 mg/kg/injection, schedule: Q01DX009 (sc), vehicle: other",137 and 140 % of control
same,T/C,"dose: 150.0 mg/kg/injection, schedule: Q01DX009 (sc), vehicle: other",129 % of control
same,survivor count,"dose: 200.0 mg/kg/injection, schedule: Q01DX009 (ip), vehicle: other",5 of 10
same,survivor count,"dose: 200.0 mg/kg/injection, schedule: Q01DX009 (sc), vehicle: other",9 of 10
O=C[C@@H](CO)O[C@H](C=O)c1c[nH]c(=O)[nH]c1=O,T/C,"dose: 150.0 mg/kg/injection, schedule: Q04DX003 (ip), vehicle: saline",134 % of control
same,survivor count,"dose: 250.0 mg/kg/injection, schedule: Q04DX003 (ip), vehicle: saline",3 of 6
O=c1cnn(C2OC(CO)C(O)C2O)c(=O)[nH]1 (stereo unspecified),T/C,"dose: 75.0 mg/kg/injection, schedule: Q01DX009 (sc), vehicle: saline",130 % of control [9 of 10 alive]
same,T/C,"dose: 150.0 mg/kg/injection, schedule: Q01DX009 (ip), vehicle: saline",131 % of control
same,T/C,"dose: 150.0 mg/kg/injection, schedule: Q01DX009 (sc), vehicle: saline",133 % of control
same,T/C,"dose: 300.0 mg/kg/injection, schedule: Q01DX009 (ip), vehicle: saline",131 % of control
same,T/C,"dose: 300.0 mg/kg/injection, schedule: Q01DX009 (sc), vehicle: saline",132 % of control
same,T/C,"dose: 600.0 mg/kg/injection, schedule: Q01DX009 (ip), vehicle: saline",140 % of control
same,T/C,"dose: 600.0 mg/kg/injection, schedule: Q01DX009 (sc), vehicle: saline",125 % of control
S=P(N1CC1)(N1CC1)N1CC1,survivor count,"dose: 1.5 mg/kg/injection, schedule: Q01DX009 (sc), vehicle: saline",5 of 10
same,T/C,"dose: 4.0 mg/kg/injection, schedule: Q01DX009 (sc), vehicle: saline",147 % of control
same,T/C,"dose: 9.0 mg/kg/injection, schedule: Q01DX009 (sc), vehicle: saline",147 % of control
same,T/C,"dose: 12.0 mg/kg/injection, schedule: Q01DX009 (ip), vehicle: water",139 % of control
same,T/C,"dose: 12.0 mg/kg/injection, schedule: Q01DX009 (sc), vehicle: saline",134 % of control [9 of 10 alive]
same,T/C,"dose: 12.0 mg/kg/injection, schedule: Q01DX009 (sc), vehicle: water",141 % of control
same,survivor count,"dose: 24.0 mg/kg/injection, schedule: Q01DX009 (sc), vehicle: saline",4 of 10

# From PubChem BioAssay AID258 (DTP/NCI, 2004)
